{"source": "PubChem BioAssay AID504791 (Drosophila RNAi Screening Center, 2011)", "screen": "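Factors in Argonaute-based small RNA production and activity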 (primary screen)", "cell system": "Drosophila S2-derived reporter cells", "reagents": "long dsRNA against Drosophila genes, about 150-250 ng dsRNA per well (siRNA assay); about 80-120 ng (miRNA assay)", "time to read-out": "about 5 days (siRNA assay); about 4 days (miRNA assay)", "treatment": "copper sulfate induction of reporters: 25 µM (siRNA assay); 200 mM stated (miRNA assay), 1-2 days before reading", "detection": "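Per-well ratio of Renilla over firefly light, expressed relative to that plate's average ratio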", "units": "stable assay Renilla, run 1 in luminescence; stable assay firefly, run 1 in luminescence", "hit rule": "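First-pass picks had plate-scaled ratios over 1.5 for the siRNA assay, over 1.6 for the miRNA assay, or under 0.6; two distinct dsRNAs had to score alike on retest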", "note": "The screen tested about 23,000 reagents; below is an unselected part of those that have a named target and a result. Of all reagents, 199 (0.86%) are marked active. 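Plate-scaled ratios behind the calls are not deposited; printed light signals are raw; many rows marked increased or decreased are still called inactive.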 Reagent sequences are not shown. The record does not give: the direction of the score."}
{"target gene":"CG6244","amplicon":"DRSC10609","stable assay Renilla, run 1":7878,"stable assay firefly, run 1":4.59e5,"outcome":"inactive"}
{"target gene":"CG12391","amplicon":"DRSC06147","stable assay Renilla, run 1":8333,"stable assay firefly, run 1":5.27e5,"outcome":"inactive"}
{"target gene":"CG18596","amplicon":"DRSC15355","stable assay Renilla, run 1":8651,"stable assay firefly, run 1":4.12e5,"outcome":"inactive"}
{"target gene":"CG3213","amplicon":"DRSC00576","stable assay Renilla, run 1":4619,"stable assay firefly, run 1":5.51e5,"outcome":"inactive"}
{"target gene":"CG15027","amplicon":"DRSC19608","stable assay Renilla, run 1":5378,"stable assay firefly, run 1":3.55e5,"outcome":"inactive"}
{"target gene":"CG30203","amplicon":"DRSC06690","stable assay Renilla, run 1":6386,"stable assay firefly, run 1":3.76e5,"outcome":"inactive"}
{"target gene":"5-HT1B","amplicon":"DRSC05031","stable assay Renilla, run 1":7442,"stable assay firefly, run 1":4.66e5,"outcome":"inactive"}
{"target gene":"5-HT1B","amplicon":"DRSC05769","stable assay Renilla, run 1":4367,"stable assay firefly, run 1":2.40e5,"outcome":"inactive"}
{"target gene":"CG13643","amplicon":"DRSC14641","stable assay Renilla, run 1":5683,"stable assay firefly, run 1":2.56e5,"outcome":"inactive"}
{"target gene":"CG13643","amplicon":"DRSC14642","stable assay Renilla, run 1":7380,"stable assay firefly, run 1":4.03e5,"outcome":"inactive"}
{"target gene":"Cpr72Ea","amplicon":"DRSC10451","stable assay Renilla, run 1":8550,"stable assay firefly, run 1":2.98e5,"outcome":"inactive"}
{"target gene":"CG31326","amplicon":"DRSC16532","stable assay Renilla, run 1":7338,"stable assay firefly, run 1":5.15e5,"outcome":"inactive"}
{"target gene":"Ilp6","amplicon":"DRSC17906","stable assay Renilla, run 1":6283,"stable assay firefly, run 1":3.86e5,"outcome":"inactive"}
{"target gene":"OstDelta","amplicon":"DRSC06980","stable assay Renilla, run 1":8745,"stable assay firefly, run 1":3.43e5,"outcome":"inactive"}
{"target gene":"Hip1","amplicon":"DRSC09812","stable assay Renilla, run 1":7606,"stable assay firefly, run 1":3.57e5,"outcome":"inactive"}
{"target gene":"CG17191","amplicon":"DRSC15185","stable assay Renilla, run 1":6046,"stable assay firefly, run 1":3.51e5,"outcome":"inactive"}
{"target gene":"Dll","amplicon":"DRSC04610","stable assay Renilla, run 1":6102,"stable assay firefly, run 1":5.46e5,"outcome":"inactive"}
{"target gene":"Kdm2","amplicon":"DRSC14286","stable assay Renilla, run 1":11474,"stable assay firefly, run 1":6.06e5,"outcome":"inactive"}
{"target gene":"CG5281","amplicon":"DRSC15761","stable assay Renilla, run 1":7159,"stable assay firefly, run 1":3.66e5,"outcome":"inactive"}
{"target gene":"Arc1","amplicon":"DRSC06159","stable assay Renilla, run 1":4039,"stable assay firefly, run 1":3.95e5,"outcome":"inactive"}
{"target gene":"CG10598","amplicon":"DRSC19358","stable assay Renilla, run 1":6027,"stable assay firefly, run 1":4.84e5,"outcome":"inactive"}
{"target gene":"PolD2","amplicon":"DRSC08147","stable assay Renilla, run 1":9513,"stable assay firefly, run 1":3.15e5,"outcome":"inactive"}
{"target gene":"PGS1","amplicon":"DRSC16304","stable assay Renilla, run 1":7194,"stable assay firefly, run 1":3.87e5,"outcome":"inactive"}
{"target gene":"Rsf1","amplicon":"DRSC03423","stable assay Renilla, run 1":7422,"stable assay firefly, run 1":5.26e5,"outcome":"inactive"}
{"target gene":"Rsf1","amplicon":"DRSC21953","stable assay Renilla, run 1":9907,"stable assay firefly, run 1":6.03e5,"outcome":"inactive"}
{"target gene":"lolal","amplicon":"DRSC06948","stable assay Renilla, run 1":9680,"stable assay firefly, run 1":3.27e5,"outcome":"inactive"}
{"target gene":"CG8679","amplicon":"DRSC03109","stable assay Renilla, run 1":6250,"stable assay firefly, run 1":3.23e5,"outcome":"inactive"}
{"target gene":"Dic1","amplicon":"DRSC14125","stable assay Renilla, run 1":7805,"stable assay firefly, run 1":4.47e5,"outcome":"inactive"}
{"target gene":"CG16957","amplicon":"DRSC02545","stable assay Renilla, run 1":7654,"stable assay firefly, run 1":3.83e5,"outcome":"inactive"}
{"target gene":"CG33332","amplicon":"DRSC15504","stable assay Renilla, run 1":7614,"stable assay firefly, run 1":4.47e5,"outcome":"inactive"}
{"target gene":"CG6321","amplicon":"DRSC10623","stable assay Renilla, run 1":7274,"stable assay firefly, run 1":4.28e5,"outcome":"inactive"}
{"target gene":"128up","amplicon":"DRSC05027","stable assay Renilla, run 1":8079,"stable assay firefly, run 1":5.06e5,"outcome":"inactive"}
{"target gene":"DENR","amplicon":"DRSC20151","stable assay Renilla, run 1":7383,"stable assay firefly, run 1":4.65e5,"outcome":"inactive"}
{"target gene":"CG32808","amplicon":"DRSC17689","stable assay Renilla, run 1":7970,"stable assay firefly, run 1":4.01e5,"outcome":"inactive"}
{"target gene":"Cpsf5","amplicon":"DRSC10374","stable siRNA reporter change":"reporter ratio raised past the hit cutoff","miRNA reporter change":"reporter ratio raised past the hit cutoff","stable assay Renilla, run 1":21206,"stable assay firefly, run 1":4.59e5,"outcome":"inactive"}

Records above whose target name begins with R or r:
{"target gene":"Rsf1","amplicon":"DRSC03423","stable assay Renilla, run 1":7422,"stable assay firefly, run 1":5.26e5,"outcome":"inactive"}
{"target gene":"Rsf1","amplicon":"DRSC21953","stable assay Renilla, run 1":9907,"stable assay firefly, run 1":6.03e5,"outcome":"inactive"}
